Results are given in words; binding and its absence hold for the method and conditions named. In cells and extracts the contact can be indirect. A result given as binding can be weak or reduced; the word gives no strength. Tags and fused reporters may be left off the sequences shown.

The target in the experiment is Flag-tagged HCV non-structural protein NS5B (hepatitis C virus). As to the kind of experiment: co-IP; HEK293T co-transfected with HA-tagged TRIM14 or truncations and Flag-tagged HCV proteins, 24 h; lysis in 20 mM Tris pH 8.0, 150 mM NaCl, 1% TritonX-100, 1 mM EDTA; immunoprecipitated using anti-Flag, 4 °C, 6-8 hours; western blot.

B1: HA-tagged TRIM14 (tripartite motif 14) (protein, UniProt Q14142 1-442)
chain: MAGAATGSRTPGRSELVEGCGWRCPEHGDRVAELFCRRCRRCVCALCPVLGAHRGHPVGLALEAAVHVQKLSQECLKQLAIKKQQHIDNITQIEDATEKLKANAESSKTWLKGKFTELRLLLDEEEALAKKFIDKNTQLTLQVYREQADSCREQLDIMNDLSNRVWSISQEPDPVQRLQAYTATEQEMQQQMSLGELCHPVPLSFEPVKSFFKGLVEAVESTLQTPLDIRLKESINCQLSDPSSTKPGTLLKTSPSPERSLLLKYARTPTLDPDTMHARLRLSADRLTVRCGLLGSLGPVPVLRFDALWQVLARDCFATGRHYWEVDVQEAGAGWWVGAAYASLRRRGASAAARLGCNRQSWCLKRYDLEYWAFHDGQRSRLRPRDDLDRLGVFLDYEAGVLAFYDVTGGMSHLHTFRATFQEPLYPALRLWEGAISIPRLP
Consider B1, for which the binding result is reported as “binds”.

The record behind these values is article PMC5006124.
